Results on 38 molecules are retold here after the supplement of paper PMC4371806.

Molecules are shown by their SMILES. In all, about 2,300 compounds were measured (“plate-normalized OD600 growth (mean of duplicates)”: median about 0.29, lowest 2% from about 0.22 on). The list shows a part of the results.

The test system of the test is Escherichia coli BW25113. The experiment in a line: plate-normalized OD600 growth (mean of duplicates) (OD600 (normalized)); higher = more growth (less inhibition). The settings on record: 10 µM. As to the method: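 E. coli BW25113 in LB (100 µl, 96-well, no shaking) was exposed to 10 µM of each compound from a ~30,000-member library and grown at 37°C for 24 h or 15°C for 48 h, in duplicate. Growth was read as OD600 and the duplicate ODs were normalized across screening plates to correct plate-to-plate variation. Hits were >3σ below the mean OD600 at 15°C and <2σ below the mean at 37°C.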

For `CC12CCC3C(CC=C4CC(O)CCC43C)C1C/C(=C\c1ccc(C(F)(F)F)cc1)C2=O` (stereo unspecified), the “plate-normalized OD600 growth” value by setting is: (temperature: 15°C, 48 h) 0.248; (temperature: 37°C, 24 h) 0.621.
For `Cc1ccc(/C=C2/CC3C4CC=C5CC(O)CCC5(C)C4CCC3(C)C2O)o1` (stereo unspecified) the same measures were 0.237 and 0.613.
For `CC(c1ccccc1)n1cncc1C(=O)O` (stereo unspecified) the same measures were 0.254 and 0.612.
The matching figures for `CCc1ccccc1N1C(=O)NC(=O)/C(=C/c2ccc(OCc3cccc(F)c3)c(Br)c2)C1=O`: 0.256 and 0.628.
With `Cc1ccc2c(c1)c(=O)c1c3n2CCN(CC#N)C3CC1` (stereo unspecified), the “plate-normalized OD600 growth” value by setting is: (temperature: 15°C, 48 h) 0.265; (temperature: 37°C, 24 h) 0.624.
Regarding `Cc1nn(-c2ccccc2)c2c1C(c1ccccc1)SCC(=O)N2` (stereo unspecified), the “plate-normalized OD600 growth” value is, setting by setting: (temperature: 15°C, 48 h) 0.248; (temperature: 37°C, 24 h) 0.613.
For the molecule `O=C1CSC(c2ccc(Br)cc2)c2c(-c3ccccc3)nn(-c3ccccc3)c2N1` (stereo unspecified), the “plate-normalized OD600 growth” value (temperature: 15°C, 48 h) worked out at 0.228 and the “plate-normalized OD600 growth” value (temperature: 37°C, 24 h) turned out to be 0.66.
On to `CCCCn1c(=O)c(C(=O)Nc2nccs2)c(O)c2ccccc21`, for which the “plate-normalized OD600 growth” value by setting is: (temperature: 15°C, 48 h) 0.24; (temperature: 37°C, 24 h) 0.646.
For `COC(=O)CSC1=NN1c1cc(C)nc(N)n1` the same measures were 0.239 and 0.661.
Consider `CN1C2CCC1CC(=O)C2`, for which the “plate-normalized OD600 growth” value reads like this: (temperature: 15°C, 48 h) 0.23; (temperature: 37°C, 24 h) 0.606.
For `Cc1nn(Cc2ccccc2Cl)c(=N)s1` the same measures were 0.258 and 0.625.
As for `CC(c1ccccc1)C1C(C#N)=C(N)Oc2c1c(=O)oc1ccccc21` (stereo unspecified), the “plate-normalized OD600 growth” value (temperature: 15°C, 48 h) is 0.241 and the “plate-normalized OD600 growth” value (temperature: 37°C, 24 h) amounted to 0.594.
As for `c1ccc2c(c1)-c1cccc3cccc-2c13`, the “plate-normalized OD600 growth” value reads like this: (temperature: 15°C, 48 h) 0.255; (temperature: 37°C, 24 h) 0.617.
Turning to `CCN(CC)c1ccc(C=C2C(=O)N(C)C(=O)N(C)C2=O)c(OCc2ccc(Cl)cc2Cl)c1`, the “plate-normalized OD600 growth” value is 0.248 (temperature: 15°C, 48 h) and 0.654 (temperature: 37°C, 24 h).
On to `Cc1ccc2c(c1)[C@@H]1CN(C)CC[C@H]1N2C(=S)NC1CCCCC1`, for which the “plate-normalized OD600 growth” value reads like this: (temperature: 15°C, 48 h) 0.25; (temperature: 37°C, 24 h) 0.6.
As to `CN1C(=O)N(C)C(=O)C(CCc2ccncc2)(Cc2cccs2)C1=O`, the “plate-normalized OD600 growth” value stood at 0.256 (temperature: 15°C, 48 h) and 0.627 (temperature: 37°C, 24 h).
On to `CC1=CC(=C2C(=O)NC(=S)NC2=O)C=C(C(F)(F)F)N1CC1CCCO1` (stereo unspecified), for which the “plate-normalized OD600 growth” value by setting is: (temperature: 15°C, 48 h) 0.242; (temperature: 37°C, 24 h) 0.607.
For `CN1C(=O)CN=C(c2ccccc2)c2ccccc21` the same measures were 0.242 and 0.615.
For the molecule `C=CC1CN2CCC1CC2C(OC(C)=O)c1ccnc2ccc(OC)cc12` (stereo unspecified), the “plate-normalized OD600 growth” value was 0.252 (temperature: 15°C, 48 h) and 0.625 (temperature: 37°C, 24 h).
Regarding `COc1cc(CC2C(=O)N(C)C(=O)N(C)C2=O)ccc1OCc1ccccc1`, the “plate-normalized OD600 growth” value reads like this: (temperature: 15°C, 48 h) 0.255; (temperature: 37°C, 24 h) 0.617.
For `CCc1ccccc1N1C(=O)CC(=O)N(C2CCCCC2)C1=O` the same measures were 0.252 and 0.647.
`O=C(C1CCCCN1)N1CCN(Cc2cccnc2)CC1` (stereo unspecified): the “plate-normalized OD600 growth” value amounted to 0.243 (temperature: 15°C, 48 h) and 0.607 (temperature: 37°C, 24 h).
`CCOP(=S)(NN(Cc1ccccc1)C(=O)c1ccccc1)OCC`: the “plate-normalized OD600 growth” value reads like this: (temperature: 15°C, 48 h) 0.249; (temperature: 37°C, 24 h) 0.656.
With `CCOC(=O)C1=C(N)OC(c2ccccc2)=C(C(=O)OCC)C12C(=O)Nc1ccccc12` (stereo unspecified), the “plate-normalized OD600 growth” value reads like this: (temperature: 15°C, 48 h) 0.255; (temperature: 37°C, 24 h) 0.617.
Take `CCOP(=S)(S)OCC.c1cncc(C2CCCCN2)c1` (stereo unspecified): the “plate-normalized OD600 growth” value was found to be 0.241 (temperature: 15°C, 48 h) and 0.614 (temperature: 37°C, 24 h).
For `COc1ccc2[nH]c(C)c(CCNCc3cccc4ccccc34)c2c1` the same measures were 0.245 and 0.622.
Turning to `Cc1ccc2c(c1)[C@@H]1CN(C)CC[C@@H]1N2C(=O)C12CC3CC(CC(C3)C1)C2`, the “plate-normalized OD600 growth” value runs as follows: (temperature: 15°C, 48 h) 0.217; (temperature: 37°C, 24 h) 0.613.
In the case of `O=C1NC(=O)C(C(CC(=O)c2ccc(Cl)cc2)c2ccc(Cl)cc2)C(=O)N1` (stereo unspecified), the “plate-normalized OD600 growth” value was 0.242 (temperature: 15°C, 48 h) and 0.652 (temperature: 37°C, 24 h).
Consider `COc1cc(Br)c(/C=C2\C(=O)NC(=O)N(c3ccccc3)C2=O)cc1OC`, for which the “plate-normalized OD600 growth” value amounted to 0.237 (temperature: 15°C, 48 h) and 0.611 (temperature: 37°C, 24 h).
Consider `O=C(C[N+]12CCC(CC1)C(C(O)(c1ccccc1)c1ccccc1)C2)c1ccc(Br)cc1` (stereo unspecified), for which the “plate-normalized OD600 growth” value is, setting by setting: (temperature: 15°C, 48 h) 0.241; (temperature: 37°C, 24 h) 0.624.
For `[Se]C(=NCc1ccccc1)NCc1ccccc1`, the “plate-normalized OD600 growth” value by setting is: (temperature: 15°C, 48 h) 0.251; (temperature: 37°C, 24 h) 0.599.
As for `CCN(CC)C(=O)NC1C(N[N+](=O)[O-])N(S(C)(=O)=O)CN1S(C)(=O)=O` (stereo unspecified), the “plate-normalized OD600 growth” value runs as follows: (temperature: 15°C, 48 h) 0.225; (temperature: 37°C, 24 h) 0.632.
`CCc1ccccc1N1C(=O)CC(=O)N(c2cccc(Cl)c2)C1=O`: the “plate-normalized OD600 growth” value by setting is: (temperature: 15°C, 48 h) 0.247; (temperature: 37°C, 24 h) 0.6.
As to `O=C1NC(=S)NC(=O)C1=Cc1ccco1`, the “plate-normalized OD600 growth” value is 0.243 (temperature: 15°C, 48 h) and 0.61 (temperature: 37°C, 24 h).
For `c1ccc2c(c1)CCc1c-2[nH]c2ccccc12`, the “plate-normalized OD600 growth” value by setting is: (temperature: 15°C, 48 h) 0.266; (temperature: 37°C, 24 h) 0.607.
The matching figures for `O=C1NC(=S)N(c2ccccc2)C(=O)/C1=C/c1ccoc1`: 0.252 and 0.624.
For `Clc1cc(Cl)cc(Br)c1`, the “plate-normalized OD600 growth” value (temperature: 15°C, 48 h) was 0.248 and the “plate-normalized OD600 growth” value (temperature: 37°C, 24 h) is 0.615.
`CCC(=Nc1ccccc1N)c1c(O)n(C)c(=O)n(C)c1=O`: the “plate-normalized OD600 growth” value reads like this: (temperature: 15°C, 48 h) 0.247; (temperature: 37°C, 24 h) 0.631.
